Test results: the supplement of paper PMC12823440, “Inhibitors supercharge kinase turnover through native proteolytic circuits” (Nature, 2025)
Where a name gives a salt, the structure may show the parent alone. Some of the results follow. The calls rarely recur for the same compound in another form.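 In K562 cells expressing nanoluciferase-fused kinases, luminescence was recorded at 4 h intervals between 2 and 18 h, normalized as percent of control with DMSO at 100% and a positive control at 0%. A significant (2 sigma) signal drop marks a time point as decreased. The authors' rule for a hit is not shown and takes in more than the number of time points.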

Sequences of proteins named here, by UniProt entry; tags and fusion partners are left off. A change or cut given only in a name is not applied to a line headed by its entry.
UniProt P36888, whole entry: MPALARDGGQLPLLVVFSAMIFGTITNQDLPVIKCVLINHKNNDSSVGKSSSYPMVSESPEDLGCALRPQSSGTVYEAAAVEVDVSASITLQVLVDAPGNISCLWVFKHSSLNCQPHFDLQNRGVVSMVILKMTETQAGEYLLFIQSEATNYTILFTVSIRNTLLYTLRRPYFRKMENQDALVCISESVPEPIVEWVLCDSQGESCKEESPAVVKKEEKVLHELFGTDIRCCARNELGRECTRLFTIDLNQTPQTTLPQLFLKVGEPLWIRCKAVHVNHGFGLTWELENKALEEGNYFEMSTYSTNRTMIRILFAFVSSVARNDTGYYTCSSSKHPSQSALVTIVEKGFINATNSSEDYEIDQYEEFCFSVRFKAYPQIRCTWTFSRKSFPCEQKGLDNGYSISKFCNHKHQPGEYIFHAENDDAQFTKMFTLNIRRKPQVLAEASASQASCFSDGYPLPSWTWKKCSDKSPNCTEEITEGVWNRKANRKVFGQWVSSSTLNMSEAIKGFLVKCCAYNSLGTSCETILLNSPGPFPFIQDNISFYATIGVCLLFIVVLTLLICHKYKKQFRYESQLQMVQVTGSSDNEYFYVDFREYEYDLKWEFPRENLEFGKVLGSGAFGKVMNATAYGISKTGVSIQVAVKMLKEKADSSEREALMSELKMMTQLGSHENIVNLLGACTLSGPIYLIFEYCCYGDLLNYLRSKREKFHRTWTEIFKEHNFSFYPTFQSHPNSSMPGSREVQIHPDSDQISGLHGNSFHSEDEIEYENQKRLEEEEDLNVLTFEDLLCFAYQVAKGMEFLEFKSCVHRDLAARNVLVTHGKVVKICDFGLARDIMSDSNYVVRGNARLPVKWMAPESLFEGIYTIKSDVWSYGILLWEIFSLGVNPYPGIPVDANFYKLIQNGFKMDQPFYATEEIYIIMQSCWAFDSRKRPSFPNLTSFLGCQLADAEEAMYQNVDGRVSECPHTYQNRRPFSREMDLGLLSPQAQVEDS
UniProt P49840: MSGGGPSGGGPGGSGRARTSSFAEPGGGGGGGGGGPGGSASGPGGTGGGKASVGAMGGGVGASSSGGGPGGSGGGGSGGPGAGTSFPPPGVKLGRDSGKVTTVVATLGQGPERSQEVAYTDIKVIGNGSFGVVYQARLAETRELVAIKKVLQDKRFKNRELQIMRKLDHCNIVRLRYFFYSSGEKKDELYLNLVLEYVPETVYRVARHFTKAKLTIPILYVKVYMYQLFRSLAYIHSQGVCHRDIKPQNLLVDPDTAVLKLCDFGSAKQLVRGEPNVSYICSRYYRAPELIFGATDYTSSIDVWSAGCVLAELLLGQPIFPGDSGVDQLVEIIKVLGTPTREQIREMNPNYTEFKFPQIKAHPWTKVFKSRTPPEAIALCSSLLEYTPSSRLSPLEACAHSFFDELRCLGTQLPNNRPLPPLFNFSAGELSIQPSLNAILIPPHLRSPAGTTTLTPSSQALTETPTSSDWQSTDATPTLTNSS
UniProt Q9Y616: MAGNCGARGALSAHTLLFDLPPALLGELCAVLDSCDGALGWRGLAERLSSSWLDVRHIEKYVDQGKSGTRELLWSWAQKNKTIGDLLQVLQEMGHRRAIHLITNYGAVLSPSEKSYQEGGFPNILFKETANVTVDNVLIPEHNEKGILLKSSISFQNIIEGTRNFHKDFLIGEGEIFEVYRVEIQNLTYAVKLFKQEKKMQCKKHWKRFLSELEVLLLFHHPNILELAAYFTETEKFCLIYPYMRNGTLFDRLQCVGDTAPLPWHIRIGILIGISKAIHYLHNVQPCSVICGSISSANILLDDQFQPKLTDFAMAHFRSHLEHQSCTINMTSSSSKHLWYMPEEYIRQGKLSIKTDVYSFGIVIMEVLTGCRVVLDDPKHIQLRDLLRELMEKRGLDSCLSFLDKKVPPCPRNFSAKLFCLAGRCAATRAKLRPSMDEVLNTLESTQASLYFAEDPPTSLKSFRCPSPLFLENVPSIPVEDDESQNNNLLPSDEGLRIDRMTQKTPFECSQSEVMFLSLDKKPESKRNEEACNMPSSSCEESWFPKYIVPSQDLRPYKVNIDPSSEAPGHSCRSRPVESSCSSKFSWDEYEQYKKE
UniProt P23458: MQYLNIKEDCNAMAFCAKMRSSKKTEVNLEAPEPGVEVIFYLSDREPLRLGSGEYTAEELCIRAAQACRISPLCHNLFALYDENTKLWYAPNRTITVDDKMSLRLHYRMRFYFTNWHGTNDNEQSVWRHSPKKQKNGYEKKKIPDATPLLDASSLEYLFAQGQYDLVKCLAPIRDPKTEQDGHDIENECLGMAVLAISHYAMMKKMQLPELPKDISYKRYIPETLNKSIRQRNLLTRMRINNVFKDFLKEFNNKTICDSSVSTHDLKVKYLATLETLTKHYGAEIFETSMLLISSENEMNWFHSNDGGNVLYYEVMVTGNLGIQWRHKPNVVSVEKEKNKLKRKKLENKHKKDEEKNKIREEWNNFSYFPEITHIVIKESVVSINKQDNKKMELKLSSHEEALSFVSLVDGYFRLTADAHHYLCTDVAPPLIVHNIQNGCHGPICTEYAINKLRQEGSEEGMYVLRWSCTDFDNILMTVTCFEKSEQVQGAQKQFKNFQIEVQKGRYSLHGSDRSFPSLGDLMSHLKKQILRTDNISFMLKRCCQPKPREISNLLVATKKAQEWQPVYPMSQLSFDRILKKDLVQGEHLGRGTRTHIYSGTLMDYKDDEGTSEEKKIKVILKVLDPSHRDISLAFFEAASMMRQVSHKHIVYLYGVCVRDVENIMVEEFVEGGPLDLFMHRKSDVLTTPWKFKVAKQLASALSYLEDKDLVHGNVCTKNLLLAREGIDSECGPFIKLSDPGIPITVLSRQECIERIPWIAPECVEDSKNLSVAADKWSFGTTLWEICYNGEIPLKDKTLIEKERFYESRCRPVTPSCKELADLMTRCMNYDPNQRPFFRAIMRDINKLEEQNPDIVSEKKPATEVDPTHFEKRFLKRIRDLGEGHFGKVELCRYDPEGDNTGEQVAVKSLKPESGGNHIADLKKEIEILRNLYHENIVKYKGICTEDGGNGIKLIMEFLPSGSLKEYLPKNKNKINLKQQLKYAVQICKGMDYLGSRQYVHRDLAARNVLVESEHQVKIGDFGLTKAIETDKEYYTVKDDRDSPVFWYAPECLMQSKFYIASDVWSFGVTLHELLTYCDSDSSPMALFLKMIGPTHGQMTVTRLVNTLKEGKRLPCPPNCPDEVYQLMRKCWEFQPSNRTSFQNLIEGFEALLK
UniProt P06239: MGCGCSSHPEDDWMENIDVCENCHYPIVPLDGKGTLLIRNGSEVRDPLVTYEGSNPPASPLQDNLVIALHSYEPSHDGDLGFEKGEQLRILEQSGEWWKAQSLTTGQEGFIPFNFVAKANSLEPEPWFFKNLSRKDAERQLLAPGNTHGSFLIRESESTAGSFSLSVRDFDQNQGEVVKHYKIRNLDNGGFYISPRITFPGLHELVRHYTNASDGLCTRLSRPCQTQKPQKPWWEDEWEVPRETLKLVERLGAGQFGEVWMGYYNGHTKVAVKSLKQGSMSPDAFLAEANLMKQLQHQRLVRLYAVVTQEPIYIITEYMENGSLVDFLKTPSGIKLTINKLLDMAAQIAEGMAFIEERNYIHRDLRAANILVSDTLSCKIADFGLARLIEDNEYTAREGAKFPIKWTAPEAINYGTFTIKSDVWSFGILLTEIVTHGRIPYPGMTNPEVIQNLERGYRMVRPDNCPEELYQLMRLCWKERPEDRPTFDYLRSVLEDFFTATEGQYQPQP
UniProt Q8IWU2: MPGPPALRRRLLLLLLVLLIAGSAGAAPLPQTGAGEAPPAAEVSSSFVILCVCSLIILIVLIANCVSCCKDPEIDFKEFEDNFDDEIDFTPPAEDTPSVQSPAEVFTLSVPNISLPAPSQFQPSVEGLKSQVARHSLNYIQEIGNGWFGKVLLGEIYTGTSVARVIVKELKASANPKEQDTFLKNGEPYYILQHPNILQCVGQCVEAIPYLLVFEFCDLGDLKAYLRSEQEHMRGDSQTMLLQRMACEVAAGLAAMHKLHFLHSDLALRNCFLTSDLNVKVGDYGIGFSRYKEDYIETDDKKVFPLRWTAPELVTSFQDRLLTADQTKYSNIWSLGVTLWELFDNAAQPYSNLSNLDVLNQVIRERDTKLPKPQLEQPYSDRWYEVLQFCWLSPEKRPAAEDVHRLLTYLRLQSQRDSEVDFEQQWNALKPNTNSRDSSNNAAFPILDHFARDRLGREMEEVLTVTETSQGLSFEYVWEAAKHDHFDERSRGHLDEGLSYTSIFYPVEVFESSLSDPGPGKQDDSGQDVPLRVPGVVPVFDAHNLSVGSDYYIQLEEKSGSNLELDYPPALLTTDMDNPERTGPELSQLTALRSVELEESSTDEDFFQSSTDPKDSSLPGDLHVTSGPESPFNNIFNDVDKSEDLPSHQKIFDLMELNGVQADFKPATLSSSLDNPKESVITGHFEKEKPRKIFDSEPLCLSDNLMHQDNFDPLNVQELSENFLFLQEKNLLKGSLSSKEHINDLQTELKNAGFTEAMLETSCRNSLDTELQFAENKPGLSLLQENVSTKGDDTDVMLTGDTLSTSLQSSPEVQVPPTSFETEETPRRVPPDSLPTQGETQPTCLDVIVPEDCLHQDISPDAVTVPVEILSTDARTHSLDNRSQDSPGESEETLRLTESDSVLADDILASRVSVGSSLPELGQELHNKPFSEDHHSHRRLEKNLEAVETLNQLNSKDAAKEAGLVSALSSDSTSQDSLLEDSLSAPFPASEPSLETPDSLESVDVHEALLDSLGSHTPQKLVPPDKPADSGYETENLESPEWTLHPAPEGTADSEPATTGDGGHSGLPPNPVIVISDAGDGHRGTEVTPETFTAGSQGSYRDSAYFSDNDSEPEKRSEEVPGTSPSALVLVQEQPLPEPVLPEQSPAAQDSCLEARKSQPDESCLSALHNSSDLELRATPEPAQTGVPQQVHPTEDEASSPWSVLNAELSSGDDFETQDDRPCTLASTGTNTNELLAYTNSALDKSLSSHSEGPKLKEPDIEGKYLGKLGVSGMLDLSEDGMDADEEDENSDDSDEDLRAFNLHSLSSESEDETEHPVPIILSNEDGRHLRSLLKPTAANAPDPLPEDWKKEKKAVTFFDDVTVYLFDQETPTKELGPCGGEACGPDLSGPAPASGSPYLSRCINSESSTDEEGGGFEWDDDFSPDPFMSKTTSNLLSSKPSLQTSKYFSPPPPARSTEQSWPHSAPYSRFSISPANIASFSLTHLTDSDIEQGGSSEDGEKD
UniProt P07948: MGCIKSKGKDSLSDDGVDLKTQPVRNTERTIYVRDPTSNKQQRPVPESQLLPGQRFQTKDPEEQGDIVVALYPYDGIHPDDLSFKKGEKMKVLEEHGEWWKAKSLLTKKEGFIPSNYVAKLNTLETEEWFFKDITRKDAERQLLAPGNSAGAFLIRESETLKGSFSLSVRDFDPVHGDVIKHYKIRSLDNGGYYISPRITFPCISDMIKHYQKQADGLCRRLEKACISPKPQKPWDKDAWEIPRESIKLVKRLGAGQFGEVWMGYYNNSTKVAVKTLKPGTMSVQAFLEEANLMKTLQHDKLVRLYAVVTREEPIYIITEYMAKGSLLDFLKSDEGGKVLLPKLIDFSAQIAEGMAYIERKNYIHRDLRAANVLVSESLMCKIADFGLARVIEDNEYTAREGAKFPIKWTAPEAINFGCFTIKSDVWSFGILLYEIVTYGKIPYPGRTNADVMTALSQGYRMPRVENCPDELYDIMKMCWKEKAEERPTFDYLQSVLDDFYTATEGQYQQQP
UniProt P28482, whole entry: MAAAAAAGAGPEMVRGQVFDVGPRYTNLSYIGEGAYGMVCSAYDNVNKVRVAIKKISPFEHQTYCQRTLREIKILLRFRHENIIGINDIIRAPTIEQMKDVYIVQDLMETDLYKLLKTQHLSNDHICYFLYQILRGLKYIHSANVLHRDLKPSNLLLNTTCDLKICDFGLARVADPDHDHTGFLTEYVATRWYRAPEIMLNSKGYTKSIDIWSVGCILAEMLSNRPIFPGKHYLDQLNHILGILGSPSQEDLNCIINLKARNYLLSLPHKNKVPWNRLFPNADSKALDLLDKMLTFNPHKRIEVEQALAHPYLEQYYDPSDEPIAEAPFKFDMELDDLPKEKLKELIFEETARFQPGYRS
UniProt Q9BUB5: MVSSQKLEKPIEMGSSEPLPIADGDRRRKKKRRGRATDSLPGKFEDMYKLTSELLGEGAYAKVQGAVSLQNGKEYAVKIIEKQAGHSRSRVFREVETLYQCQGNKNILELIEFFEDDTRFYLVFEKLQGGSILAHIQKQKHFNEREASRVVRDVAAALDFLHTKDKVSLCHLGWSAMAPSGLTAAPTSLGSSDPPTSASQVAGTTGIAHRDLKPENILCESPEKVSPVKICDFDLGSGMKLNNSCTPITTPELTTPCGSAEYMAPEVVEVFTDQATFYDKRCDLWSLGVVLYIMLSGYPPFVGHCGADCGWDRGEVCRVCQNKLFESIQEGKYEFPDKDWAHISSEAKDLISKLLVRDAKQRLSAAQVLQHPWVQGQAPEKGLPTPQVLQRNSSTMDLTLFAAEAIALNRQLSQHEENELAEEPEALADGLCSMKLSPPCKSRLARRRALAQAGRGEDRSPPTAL

How the values were obtained:
Test in all cases: number of time points (of 5) at which kinase-Nluc abundance scored as decreased, DMSO-normalised (count); higher = more persistent destabilization
Conditions in all cases: K562; 2-18 h
[1] = target: FLT3 (UniProt P36888)
[2] = target: FYN (UniProt P06241)
[3] = target: GSK3A (UniProt P49840)
[4] = target: HER2 (UniProt P04626)
[5] = target: INSRR (UniProt P14616)
[6] = target: IRAK3 (UniProt Q9Y616)
[7] = target: JAK1 (UniProt P23458)
[8] = target: LCK (UniProt P06239)
[9] = target: LIMK1 (UniProt P53667)
[10] = target: LIMK2 (UniProt P53671)
[11] = target: LMTK2 (UniProt Q8IWU2)
[12] = target: LYN (UniProt P07948)
[13] = target: MAP2K1 (UniProt Q02750)
[14] = target: MAP2K2 (UniProt P36507)
[15] = target: MAP4K2 (UniProt Q12851)
[16] = target: MAPK1 (UniProt P28482)
[17] = target: MAPK4 (UniProt P31152)
[18] = target: MAPKAPK2 (UniProt P49137)
[19] = target: MKNK1 (UniProt Q9BUB5)
[20] = target: NTRK2 (UniProt Q16620)

Measured: number of time points

Nc1n[nH]c2nc(-c3ccc(NS(=O)(=O)c4cc(Cl)ccc4F)cc3)cnc12 (10 µM)
1: [4]
0: all other assays above

CC/C(=N\NC(=O)c1ccnc(NCCCN2CCOCC2)c1)c1ccc(Cl)cc1O (2.5 µM)
0: all assays above

C[C@H](Nc1ncnc2[nH]cnc12)c1cc2ccc(F)cc2nc1-c1ccccn1 (10 µM)
0: all assays above

O=c1[nH]c(C2CCCN2)nc2c1oc1ccc(Cl)cc12 (stereo not given) [XL413 (hydrochloride)] (10 µM)
0: all assays above

CC(C)(O)[C@H]1CC[C@H](Nc2ccc3ncc(-c4cccc(C(F)(F)F)c4)n3n2)CC1 (10 µM)
0: all assays above

COc1ccc2cc3[n+](cc2c1OC)CCc1cc(O)c(O)cc1-3 [Demethyleneberberine] (10 µM)
0: all assays above

C=CC(=O)Nc1cc(Nc2nccc(-n3cc(CN(C)C)c(-c4ccccc4)n3)n2)c(OC)cc1N1CCOCC1 [Lazertinib] (10 µM)
3: [4]
0: all other assays above

Cn1cnc([N+](=O)[O-])c1C[N+](C)(C)C/C=C/C(=O)Nc1cc2c(Nc3ccc(Cl)c(Br)c3)ncnc2cn1 [Tarloxotinib (bromide)] (10 µM)
4: [4]
0: all other assays above

CNC(=O)c1ccccc1Oc1nc(Nc2cc(OC)c(OC)c(OC)c2)ncc1Br (2.5 µM)
0: all assays above

COc1cc(-c2cn[nH]c2)ccc1C(=O)Nc1ccc2c(c1)CCNCC2 (10 µM)
0: all assays above

c1ccc(-c2nc(=NCCN3CCOCC3)sn2-c2ccccc2)cc1 [VP3.15 (dihydrobromide)] (10 µM)
0: all assays above

CCn1c(=O)c(-c2cc[nH]n2)cc2c(C)nc(N)nc21 [Voxtalisib] (10 µM)
2: [9]
1: [5]
0: all other assays above

Cn1cc(-c2c[nH]c3ncnc(N4CCOCC4)c23)cc1C#N (10 µM)
0: all assays above

COc1ccc(S(=O)(=O)NCc2ccc(C(=O)NCCc3ccc(Cl)cn3)cc2)cc1 (10 µM)
0: all assays above

Cc1cc(Nc2nc(CC3(C(=O)O)CCN(C(=O)c4cccc(Cl)c4Cl)CC3)ccc2F)n[nH]1 (10 µM)
3: [5]
4: [19]
1: [7]
2: [1]
0: all other assays above

Cc1ccc2c(Nc3cccc(Cl)c3F)nccc2c1NC(=O)c1csc2c(N)ncnc12 [Belvarafenib] (10 µM)
0: all assays above

O=C(Nc1cccc(C(F)(F)F)c1)c1cccc2cc(Oc3cc(CO)ncn3)ccc12 (10 µM)
0: all assays above

O=c1cc(-c2cccc3c2Sc2ccccc2S3)oc(N2CCOCC2)c1 (10 µM)
0: all assays above

Quoted from the listing, 2 compounds:
O=C(Nc1cccc(C(F)(F)F)c1)c1cccc2cc(Oc3cc(CO)ncn3)ccc12 (10 µM)
0: all assays above

O=c1cc(-c2cccc3c2Sc2ccccc2S3)oc(N2CCOCC2)c1 (10 µM)
0: all assays above

Next compounds follow.

Cc1cc(C)nc(NS(=O)(=O)c2ccc(NC(=S)NC(=O)COc3ccc(Br)cc3Cl)cc2)n1 (2.5 µM)
0: all assays above

CCN(CC)c1ccc2cc(-c3nc4cc(C)ccc4o3)c(=O)oc2c1 (10 µM)
0: all assays above

CCc1cncnc1N1CCN(Cc2nc3ccc(C(F)(F)F)cc3[nH]2)CC1 (10 µM)
0: all assays above

Cc1cc(-c2ccnc(Nc3cnn(C)c3)n2)ccc1CNC(=O)N1CC(OC(C)C)C1 (10 µM)
0: all assays above
